Reference: patent US20060058231A1
Substitutions are numbered along the chain they refer to. In names and notes the source's numbering stands. No constants are given. Whether binding was seen depends on the method and setting. Some results given as binding are weak or reduced against the parent protein; the word gives no strength. For some of these results: Sequences can lack the tags named with a protein.

Protein sequences, listed by entry. Tags and fused reporters are not part of them. Residues count along the entry.
UniProt P27037, residues 20-134: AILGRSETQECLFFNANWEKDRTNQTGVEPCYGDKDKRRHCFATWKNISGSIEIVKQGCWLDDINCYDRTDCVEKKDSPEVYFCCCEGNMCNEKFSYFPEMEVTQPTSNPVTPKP
UniProt P36894, residues 24-152: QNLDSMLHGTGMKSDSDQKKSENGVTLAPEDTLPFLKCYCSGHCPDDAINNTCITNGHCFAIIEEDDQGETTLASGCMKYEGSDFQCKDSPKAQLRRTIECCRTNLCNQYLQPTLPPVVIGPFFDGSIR

T1: ActRIIb receptor/Fc fusion (R&D Systems) (UniProt Q13705)
T1 sequence (looked up): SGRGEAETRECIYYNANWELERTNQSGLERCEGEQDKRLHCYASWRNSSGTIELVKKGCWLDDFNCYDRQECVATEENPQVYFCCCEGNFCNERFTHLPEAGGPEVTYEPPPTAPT

T2: BMPRIb receptor/Fc fusion (R&D Systems) (UniProt O00238)
T2 sequence (looked up): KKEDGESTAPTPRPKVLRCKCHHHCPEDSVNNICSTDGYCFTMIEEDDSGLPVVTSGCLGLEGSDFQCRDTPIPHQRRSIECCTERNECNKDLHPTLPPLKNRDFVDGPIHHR

T3: BMPRII receptor/Fc fusion (R&D Systems) (UniProt Q13873)
T3 sequence (looked up): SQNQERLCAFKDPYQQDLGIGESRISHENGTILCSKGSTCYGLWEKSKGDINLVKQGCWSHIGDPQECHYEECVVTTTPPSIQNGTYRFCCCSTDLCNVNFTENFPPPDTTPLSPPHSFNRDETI

B1: FXS labeled BMP7 (ligand)
BMP-7 mature domain: STGGKQRSQNRSKTPKNQEALRMASVAENSSSDQRQACKKHELYVSFRDLGWQDWIIAPEGYAANYCEGECAFPLNSYMNATNHAIVQTLVHFINPETVPKPCCAPTQLNAISVLYFDDDSNVILKKYRNMVVRACGCH
modifications: labeled with C6-FXS (FITC-derived NHS fluorophore); labeled sites not given
B2: Y78H/R134S (ligand)
BMP-7 mature domain: B1 BMP-7 mature domain with N65Y, Y78H, D120S, R134S
B3: Y78H/Q108D (ligand)
BMP-7 mature domain: B1 BMP-7 mature domain with N65Y, Y78H, Q108D, D120S
B4: Y78H/R134E (ligand)
BMP-7 mature domain: B1 BMP-7 mature domain with N65Y, Y78H, D120S, R134E
B5: Y78H/H139R (ligand)
BMP-7 mature domain: B1 BMP-7 mature domain with N65Y, Y78H, D120S, H139R
B6: K39S/N110D (ligand)
BMP-7 mature domain: B1 BMP-7 mature domain with K39S, N65Y, N110D, D120S
B7: K39S/S120D (ligand)
BMP-7 mature domain: B1 BMP-7 mature domain with K39S, N65Y
B8: Y78H/S120D (ligand)
BMP-7 mature domain: B1 BMP-7 mature domain with N65Y, Y78H
B9: Y78H/A135E (ligand)
BMP-7 mature domain: B1 BMP-7 mature domain with N65Y, Y78H, D120S, A135E
B10: F93H/K39A (ligand)
BMP-7 mature domain: B1 BMP-7 mature domain with K39A, N65Y, F93H, D120S
B11: F93H/H139R (ligand)
BMP-7 mature domain: B1 BMP-7 mature domain with N65Y, F93H, D120S, H139R
B12: Y78H/A135S (ligand)
BMP-7 mature domain: B1 BMP-7 mature domain with N65Y, Y78H, D120S, A135S
B13: F93H/R134S (ligand)
BMP-7 mature domain: B1 BMP-7 mature domain with N65Y, F93H, D120S, R134S
B14: F93H/S120D (ligand)
BMP-7 mature domain: B1 BMP-7 mature domain with N65Y, F93H

These binders were tested against ActRIIa receptor/Fc fusion (R&D Systems) (UniProt P27037) (assay: fluorescence anisotropy, labeled BMP-7 added to serial dilutions of receptor/Fc fusion (x axis [receptor] uM)).

binding	Binder
binds	B1

The binders below were run against T1, ActRIIb receptor/Fc fusion (R&D Systems) in the same assay as above.

binding	Binder
binds	B1

The binders below were run against BMPRIa receptor/Fc fusion (R&D Systems) (UniProt P36894) in the same assay as above.

binding	Binder
binds	B1

What follows are binders tested against T2, BMPRIb receptor/Fc fusion (R&D Systems) (assay: plate direct binding assay, BMP-7 from conditioned medium captured by anti-BMP-7 antibody, receptor-Fc titrated in 12 points; EC50 drawn as a bar, no number given).

binding	Binder
binds	B2
binds	B3
binds	B4
binds	B5
binds	B6
binds	B7
binds	B8
binds	B9
binds	B10
binds	B11
binds	B12
binds	B13
binds	B14

Each binder was assayed against ActRIIa receptor/Fc fusion (R&D Systems) (UniProt P27037) in the same assay as above.

binding	Binder
binds	B2
binds	B3
binds	B4
binds	B5
binds	B6
binds	B7
binds	B8
binds	B9
binds	B10
binds	B11
binds	B12
binds	B13
binds	B14

What follows are binders tested against T3, BMPRII receptor/Fc fusion (R&D Systems) in the same assay as above.

binding	Binder
binds	B2
binds	B3
binds	B4
binds	B5
binds	B6
binds	B7
binds	B8
binds	B9
binds	B10
binds	B11
binds	B12
binds	B13
binds	B14

What follows are binders tested against BMPRIa receptor/Fc fusion (R&D Systems) (UniProt P36894) in the same assay as above.

binding	Binder
binds	B2
binds	B3
binds	B4
binds	B5
binds	B6
binds	B7
binds	B8
binds	B9
binds	B10
binds	B11
binds	B12
binds	B13
binds	B14
